Numbering of substitutions follows the chain as printed. No constants are given. Whether binding was seen depends on the method and setting. In cells and extracts the contact can be indirect. Binding can be weak; no strength is given. Sequences can lack the tags named with a protein.
Assays:
Assay in all cases: co-IP; GFP-WDR44 wild-type or variants transiently expressed in RPE1 WDR44 KO F4 cells for 48 h; GFP proteins immunoprecipitated from lysate, blots probed with GFP, RAB11 and VAPA antibodies
[1] = target: T1, GFP-tagged WDR44 wild-type (human) (UniProt Q5JSH3)
T1 sequence: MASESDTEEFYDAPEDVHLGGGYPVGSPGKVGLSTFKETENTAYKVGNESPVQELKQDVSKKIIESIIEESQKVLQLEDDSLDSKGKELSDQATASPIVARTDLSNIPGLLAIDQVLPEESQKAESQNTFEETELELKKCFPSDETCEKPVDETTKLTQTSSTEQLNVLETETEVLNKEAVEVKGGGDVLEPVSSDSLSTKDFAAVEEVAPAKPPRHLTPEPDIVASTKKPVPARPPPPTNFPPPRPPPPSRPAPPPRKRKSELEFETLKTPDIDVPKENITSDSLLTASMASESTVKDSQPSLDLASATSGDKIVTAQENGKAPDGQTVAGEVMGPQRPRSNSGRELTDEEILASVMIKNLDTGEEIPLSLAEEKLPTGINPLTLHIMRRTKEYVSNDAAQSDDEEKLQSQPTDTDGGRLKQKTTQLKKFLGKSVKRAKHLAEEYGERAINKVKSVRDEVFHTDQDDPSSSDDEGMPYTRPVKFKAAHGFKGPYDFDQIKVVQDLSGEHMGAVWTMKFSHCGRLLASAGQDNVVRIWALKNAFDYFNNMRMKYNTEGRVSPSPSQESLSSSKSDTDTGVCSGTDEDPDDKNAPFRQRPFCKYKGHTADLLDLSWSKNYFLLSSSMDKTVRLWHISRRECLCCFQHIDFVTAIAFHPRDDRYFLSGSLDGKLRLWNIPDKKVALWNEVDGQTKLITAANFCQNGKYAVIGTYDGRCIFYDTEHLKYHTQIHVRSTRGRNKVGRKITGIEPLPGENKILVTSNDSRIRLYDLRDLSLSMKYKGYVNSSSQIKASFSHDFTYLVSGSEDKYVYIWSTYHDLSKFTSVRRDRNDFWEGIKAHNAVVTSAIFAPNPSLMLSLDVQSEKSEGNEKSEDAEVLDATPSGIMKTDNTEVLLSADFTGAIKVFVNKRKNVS

[2] = target: T2, GFP-tagged WDR44 R733* (human) (UniProt Q5JSH3)
T2 sequence: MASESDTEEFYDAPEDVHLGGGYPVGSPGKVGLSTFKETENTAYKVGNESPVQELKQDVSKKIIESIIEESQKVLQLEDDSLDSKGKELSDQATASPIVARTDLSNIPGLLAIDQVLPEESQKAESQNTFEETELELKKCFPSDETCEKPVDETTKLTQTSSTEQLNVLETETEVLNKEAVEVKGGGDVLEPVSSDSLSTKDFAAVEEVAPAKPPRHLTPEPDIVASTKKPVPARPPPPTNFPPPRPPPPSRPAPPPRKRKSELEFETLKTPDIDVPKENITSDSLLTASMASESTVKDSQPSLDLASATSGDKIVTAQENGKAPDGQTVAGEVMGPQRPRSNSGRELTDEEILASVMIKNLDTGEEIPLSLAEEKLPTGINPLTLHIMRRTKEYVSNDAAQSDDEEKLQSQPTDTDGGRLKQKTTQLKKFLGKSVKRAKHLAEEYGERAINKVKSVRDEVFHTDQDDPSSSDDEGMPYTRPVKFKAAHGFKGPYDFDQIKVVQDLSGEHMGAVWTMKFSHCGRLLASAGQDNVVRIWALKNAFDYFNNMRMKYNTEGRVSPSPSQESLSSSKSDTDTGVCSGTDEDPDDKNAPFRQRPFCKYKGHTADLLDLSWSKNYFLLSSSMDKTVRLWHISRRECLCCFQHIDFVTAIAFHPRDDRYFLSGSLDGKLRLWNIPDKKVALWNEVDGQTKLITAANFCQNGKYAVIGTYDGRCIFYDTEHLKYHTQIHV

[3] = target: T3, GFP-tagged WDR44 D669N (human) (UniProt Q5JSH3)
T3 sequence: T1 sequence with D669N

Measured: binding

Endogenous RAB11
binds: all assays above

Reference: paper PMC10774338
